This is one part of the list.
Assays:
Test in all cases: log2 fold change, soluble protein after heating vs DMSO (PISA); higher = thermal stabilisation; K562 cells, 10 uM, 30 min; active = over 0.2 and 3.5 SD of the protein, either way, in both replicates (recomputed)
[1] = compound: C1=CC=C(C=C1)[C@H](COC2=CC3=C(C=C2)NC(=O)N3)NC(=O)C4=CC=CN(C4=O)CC5=CC(=C(C=C5)F)F
In short: (§1)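 K562 cells at 2×10^6 cells/mL were treated for 30 min with 10 μM compound, and aliquots were heated for 3 min over 48°C-58°C before pooling. Extraction used PBS with 0.5% NP-40 at 4°C, and soluble protein was the supernatant after 21,000xg for 90 min, measured by TMTpro 16plex LC-MS/MS with channel sums equalised. Thermal stability values, relative to control samples and from duplicates, are log2 fold changes.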

Protein sequences, listed by entry. Tags and fused reporters are not part of them. Lines headed by an entry give the natural chain unless they say otherwise; changes in a name come on top.
UniProt Q9UG56: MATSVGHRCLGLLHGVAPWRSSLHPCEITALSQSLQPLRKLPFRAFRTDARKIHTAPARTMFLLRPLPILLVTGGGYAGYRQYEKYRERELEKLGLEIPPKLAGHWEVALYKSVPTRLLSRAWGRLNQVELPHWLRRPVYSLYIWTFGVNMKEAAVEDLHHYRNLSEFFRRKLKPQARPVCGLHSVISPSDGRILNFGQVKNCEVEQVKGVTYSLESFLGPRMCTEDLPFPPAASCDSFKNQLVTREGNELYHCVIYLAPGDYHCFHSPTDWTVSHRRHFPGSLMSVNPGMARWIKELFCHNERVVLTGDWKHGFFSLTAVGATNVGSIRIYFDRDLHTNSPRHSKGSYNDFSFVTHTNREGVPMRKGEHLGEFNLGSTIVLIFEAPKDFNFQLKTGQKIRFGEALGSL
UniProt O60825: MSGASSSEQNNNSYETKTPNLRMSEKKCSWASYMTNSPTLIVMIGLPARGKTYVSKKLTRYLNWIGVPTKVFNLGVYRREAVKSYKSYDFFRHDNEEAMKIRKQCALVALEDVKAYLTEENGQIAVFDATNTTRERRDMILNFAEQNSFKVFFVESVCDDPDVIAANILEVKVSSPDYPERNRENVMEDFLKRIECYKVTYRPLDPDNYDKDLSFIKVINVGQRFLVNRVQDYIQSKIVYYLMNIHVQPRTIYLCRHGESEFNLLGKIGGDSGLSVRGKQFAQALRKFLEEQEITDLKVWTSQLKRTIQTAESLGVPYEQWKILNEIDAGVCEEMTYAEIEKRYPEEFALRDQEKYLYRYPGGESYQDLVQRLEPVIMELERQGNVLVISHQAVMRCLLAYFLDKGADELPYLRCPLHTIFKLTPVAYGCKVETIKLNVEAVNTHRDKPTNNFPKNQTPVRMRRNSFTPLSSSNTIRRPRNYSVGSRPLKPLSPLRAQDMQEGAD
UniProt Q96CS7: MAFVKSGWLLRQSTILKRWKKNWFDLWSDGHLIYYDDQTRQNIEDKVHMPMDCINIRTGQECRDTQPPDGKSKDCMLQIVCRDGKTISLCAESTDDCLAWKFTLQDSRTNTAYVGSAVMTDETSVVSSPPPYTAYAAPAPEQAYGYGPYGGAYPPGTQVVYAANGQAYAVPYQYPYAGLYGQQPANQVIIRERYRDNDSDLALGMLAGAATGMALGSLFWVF
UniProt O43164: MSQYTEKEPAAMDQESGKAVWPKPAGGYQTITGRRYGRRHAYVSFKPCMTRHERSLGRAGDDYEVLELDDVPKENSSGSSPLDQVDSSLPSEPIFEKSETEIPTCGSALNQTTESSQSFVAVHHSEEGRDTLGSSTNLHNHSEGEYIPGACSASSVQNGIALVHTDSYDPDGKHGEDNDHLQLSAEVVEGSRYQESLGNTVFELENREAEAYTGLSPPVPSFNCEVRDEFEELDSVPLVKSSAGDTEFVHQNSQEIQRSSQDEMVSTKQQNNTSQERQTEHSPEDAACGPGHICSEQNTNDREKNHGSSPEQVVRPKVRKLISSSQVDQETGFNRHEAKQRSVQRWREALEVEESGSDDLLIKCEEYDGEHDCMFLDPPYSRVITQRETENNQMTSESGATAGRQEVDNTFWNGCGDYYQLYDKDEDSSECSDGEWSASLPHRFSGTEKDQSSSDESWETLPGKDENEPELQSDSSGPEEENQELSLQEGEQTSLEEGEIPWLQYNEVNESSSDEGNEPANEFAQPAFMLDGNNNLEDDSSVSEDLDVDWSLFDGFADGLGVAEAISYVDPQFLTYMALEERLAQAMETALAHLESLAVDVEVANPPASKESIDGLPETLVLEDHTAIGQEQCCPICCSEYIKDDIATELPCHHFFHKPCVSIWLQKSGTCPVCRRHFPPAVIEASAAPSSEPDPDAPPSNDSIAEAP
UniProt P16885: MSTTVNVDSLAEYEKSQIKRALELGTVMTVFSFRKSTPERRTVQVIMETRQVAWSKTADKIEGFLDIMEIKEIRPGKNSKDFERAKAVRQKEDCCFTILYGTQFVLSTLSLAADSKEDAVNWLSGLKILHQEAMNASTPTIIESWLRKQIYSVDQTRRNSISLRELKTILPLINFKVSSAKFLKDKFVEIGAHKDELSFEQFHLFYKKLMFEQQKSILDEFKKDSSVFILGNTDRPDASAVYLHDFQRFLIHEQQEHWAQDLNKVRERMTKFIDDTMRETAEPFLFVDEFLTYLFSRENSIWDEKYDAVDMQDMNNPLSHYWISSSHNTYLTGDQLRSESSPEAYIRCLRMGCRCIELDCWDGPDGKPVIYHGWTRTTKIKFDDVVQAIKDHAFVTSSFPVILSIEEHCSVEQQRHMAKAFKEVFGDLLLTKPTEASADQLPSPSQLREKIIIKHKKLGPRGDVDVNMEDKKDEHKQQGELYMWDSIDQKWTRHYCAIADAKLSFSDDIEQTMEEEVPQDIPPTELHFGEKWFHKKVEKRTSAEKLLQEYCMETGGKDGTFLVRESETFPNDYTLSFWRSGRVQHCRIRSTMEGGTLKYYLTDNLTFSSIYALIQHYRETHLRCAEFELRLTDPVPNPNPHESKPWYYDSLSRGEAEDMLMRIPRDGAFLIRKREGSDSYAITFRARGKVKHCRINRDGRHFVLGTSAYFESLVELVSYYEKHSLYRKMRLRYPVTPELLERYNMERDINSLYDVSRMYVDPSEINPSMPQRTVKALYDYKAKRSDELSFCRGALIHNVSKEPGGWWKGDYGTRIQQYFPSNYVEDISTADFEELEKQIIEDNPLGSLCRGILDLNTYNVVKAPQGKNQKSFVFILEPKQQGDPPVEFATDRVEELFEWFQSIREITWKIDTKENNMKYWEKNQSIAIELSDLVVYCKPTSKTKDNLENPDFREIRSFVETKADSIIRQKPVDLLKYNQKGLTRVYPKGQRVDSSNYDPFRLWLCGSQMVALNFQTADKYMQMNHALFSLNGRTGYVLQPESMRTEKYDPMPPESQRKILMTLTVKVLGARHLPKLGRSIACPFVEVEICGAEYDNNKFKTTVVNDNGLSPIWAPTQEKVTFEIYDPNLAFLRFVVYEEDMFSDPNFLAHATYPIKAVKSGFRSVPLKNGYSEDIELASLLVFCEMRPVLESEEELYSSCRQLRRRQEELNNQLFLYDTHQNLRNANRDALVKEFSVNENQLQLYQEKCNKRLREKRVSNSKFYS
UniProt P28328: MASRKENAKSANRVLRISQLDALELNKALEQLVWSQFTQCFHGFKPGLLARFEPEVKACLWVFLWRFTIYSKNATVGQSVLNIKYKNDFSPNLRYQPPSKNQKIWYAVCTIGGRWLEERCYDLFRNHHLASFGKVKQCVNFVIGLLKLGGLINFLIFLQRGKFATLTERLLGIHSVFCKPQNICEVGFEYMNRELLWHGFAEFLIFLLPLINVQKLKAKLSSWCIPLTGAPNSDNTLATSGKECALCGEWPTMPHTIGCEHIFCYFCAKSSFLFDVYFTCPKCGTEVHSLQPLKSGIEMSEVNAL
UniProt Q969N2: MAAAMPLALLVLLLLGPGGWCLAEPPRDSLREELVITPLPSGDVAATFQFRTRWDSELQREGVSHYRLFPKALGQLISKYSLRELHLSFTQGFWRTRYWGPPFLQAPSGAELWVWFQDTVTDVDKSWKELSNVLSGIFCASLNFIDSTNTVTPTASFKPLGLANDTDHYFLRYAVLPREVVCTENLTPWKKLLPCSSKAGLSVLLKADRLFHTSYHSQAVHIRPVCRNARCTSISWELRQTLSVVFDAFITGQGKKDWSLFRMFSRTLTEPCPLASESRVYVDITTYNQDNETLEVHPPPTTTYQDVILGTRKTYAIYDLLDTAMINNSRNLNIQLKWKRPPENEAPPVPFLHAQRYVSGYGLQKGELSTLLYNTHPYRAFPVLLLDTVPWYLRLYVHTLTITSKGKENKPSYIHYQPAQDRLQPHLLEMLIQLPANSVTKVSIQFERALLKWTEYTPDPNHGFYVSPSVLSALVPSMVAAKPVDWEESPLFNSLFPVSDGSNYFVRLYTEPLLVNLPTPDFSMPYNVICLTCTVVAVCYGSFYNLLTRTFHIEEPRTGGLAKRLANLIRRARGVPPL
UniProt Q16513: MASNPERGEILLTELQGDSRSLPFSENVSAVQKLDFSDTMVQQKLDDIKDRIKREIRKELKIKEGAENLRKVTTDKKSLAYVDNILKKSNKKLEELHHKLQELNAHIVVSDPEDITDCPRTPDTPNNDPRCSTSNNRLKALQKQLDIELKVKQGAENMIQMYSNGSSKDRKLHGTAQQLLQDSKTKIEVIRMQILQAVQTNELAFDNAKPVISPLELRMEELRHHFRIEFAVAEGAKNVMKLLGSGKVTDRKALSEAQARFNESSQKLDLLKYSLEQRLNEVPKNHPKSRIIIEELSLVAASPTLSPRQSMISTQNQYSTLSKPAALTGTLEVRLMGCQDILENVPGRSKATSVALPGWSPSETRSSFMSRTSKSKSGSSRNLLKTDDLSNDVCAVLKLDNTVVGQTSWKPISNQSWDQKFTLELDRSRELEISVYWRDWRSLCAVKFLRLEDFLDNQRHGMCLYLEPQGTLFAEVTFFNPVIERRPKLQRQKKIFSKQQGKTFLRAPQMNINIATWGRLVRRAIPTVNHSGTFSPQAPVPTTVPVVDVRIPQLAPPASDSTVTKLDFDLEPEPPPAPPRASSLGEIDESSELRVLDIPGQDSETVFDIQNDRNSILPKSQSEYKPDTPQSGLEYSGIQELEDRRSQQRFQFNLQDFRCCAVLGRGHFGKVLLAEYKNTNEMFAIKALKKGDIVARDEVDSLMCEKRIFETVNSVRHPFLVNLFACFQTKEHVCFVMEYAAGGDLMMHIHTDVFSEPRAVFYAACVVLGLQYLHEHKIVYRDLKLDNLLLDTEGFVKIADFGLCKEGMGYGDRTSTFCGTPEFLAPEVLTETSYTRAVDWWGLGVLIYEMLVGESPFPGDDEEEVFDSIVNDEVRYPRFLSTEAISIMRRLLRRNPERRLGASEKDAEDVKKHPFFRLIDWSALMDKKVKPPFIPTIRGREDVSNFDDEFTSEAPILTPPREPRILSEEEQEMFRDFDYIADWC
UniProt Q9Y5Y5: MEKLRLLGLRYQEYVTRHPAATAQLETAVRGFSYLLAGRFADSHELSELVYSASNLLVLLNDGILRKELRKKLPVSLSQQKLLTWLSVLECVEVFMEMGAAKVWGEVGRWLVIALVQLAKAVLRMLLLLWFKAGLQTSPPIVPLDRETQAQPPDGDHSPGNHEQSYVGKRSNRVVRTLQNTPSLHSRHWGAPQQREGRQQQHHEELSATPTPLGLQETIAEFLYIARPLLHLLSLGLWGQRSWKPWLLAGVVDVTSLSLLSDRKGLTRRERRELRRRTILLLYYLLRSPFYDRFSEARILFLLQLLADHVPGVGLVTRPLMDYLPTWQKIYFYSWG
UniProt Q16512: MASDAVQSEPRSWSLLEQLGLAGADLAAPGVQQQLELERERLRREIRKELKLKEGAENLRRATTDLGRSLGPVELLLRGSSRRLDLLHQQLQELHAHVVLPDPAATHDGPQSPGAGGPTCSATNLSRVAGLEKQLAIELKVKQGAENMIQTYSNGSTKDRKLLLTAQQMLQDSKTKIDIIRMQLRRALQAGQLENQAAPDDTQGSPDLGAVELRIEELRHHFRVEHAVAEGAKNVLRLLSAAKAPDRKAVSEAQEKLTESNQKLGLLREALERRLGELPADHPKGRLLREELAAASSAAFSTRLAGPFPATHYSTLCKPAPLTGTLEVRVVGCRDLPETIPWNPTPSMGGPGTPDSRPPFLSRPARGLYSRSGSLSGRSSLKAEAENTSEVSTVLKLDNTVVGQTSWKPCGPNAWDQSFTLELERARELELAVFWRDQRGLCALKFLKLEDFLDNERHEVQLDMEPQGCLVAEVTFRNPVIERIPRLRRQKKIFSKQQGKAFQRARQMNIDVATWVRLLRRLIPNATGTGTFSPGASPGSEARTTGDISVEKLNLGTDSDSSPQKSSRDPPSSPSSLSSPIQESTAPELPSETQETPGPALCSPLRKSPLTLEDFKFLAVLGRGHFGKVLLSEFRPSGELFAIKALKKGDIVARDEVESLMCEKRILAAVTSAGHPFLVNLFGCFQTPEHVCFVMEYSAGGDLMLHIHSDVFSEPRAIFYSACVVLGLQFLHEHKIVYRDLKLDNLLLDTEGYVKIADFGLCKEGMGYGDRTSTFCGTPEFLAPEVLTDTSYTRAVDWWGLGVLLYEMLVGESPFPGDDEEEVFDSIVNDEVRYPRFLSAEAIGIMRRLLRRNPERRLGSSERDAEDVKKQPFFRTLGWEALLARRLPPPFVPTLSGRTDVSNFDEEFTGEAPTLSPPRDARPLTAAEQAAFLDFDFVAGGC
UniProt O00628: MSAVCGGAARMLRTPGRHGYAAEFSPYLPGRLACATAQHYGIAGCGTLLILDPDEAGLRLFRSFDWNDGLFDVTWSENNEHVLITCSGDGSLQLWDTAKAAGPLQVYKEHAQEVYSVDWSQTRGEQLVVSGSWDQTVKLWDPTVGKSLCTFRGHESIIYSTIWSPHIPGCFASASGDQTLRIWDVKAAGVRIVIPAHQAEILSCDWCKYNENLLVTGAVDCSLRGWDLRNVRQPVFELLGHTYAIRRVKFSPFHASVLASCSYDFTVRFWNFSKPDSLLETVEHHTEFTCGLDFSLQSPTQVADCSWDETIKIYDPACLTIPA

[2] = compound: CC1=C(SC2=C1C(=N[C@H](C3=NN=C(N32)C)CC(=O)N)C4=CC=C(C=C4)Cl)C
In short: as §1

[3] = compound: CC1=C2C(=CC=C1)N=C(N(C2=O)C3=CC=CC=C3C)CN4C=NC5=C(N=CN=C54)N
In short: as §1

[4] = compound: Cc1sc2c(c1C)C(c1ccc(Cl)cc1)=N[C@@H](CC(=O)OC(C)(C)C)c1nnc(C)n1-2
In short: as §1

[5] = compound: c1ccc([C@@H]2C[C@H]2NC2CCNCC2)cc1
In short: as §1

Measured: log2 fold change

PISD (UniProt Q9UG56)
inactive: [1] 0.002 | [2] -0.024 | [3] 0.079 | [4] -0.011 | [5] 0.043

PHF10 (UniProt Q8WUB8)
inactive: [1] -0.006 | [2] -0.13 | [3] 0.021 | [4] 0.162 | [5] 0.049

PLCL1 (UniProt Q15111)
inactive: [1] 0.12 | [2] 0.073 | [3] 0.165 | [4] -0.029 | [5] 0.052

PGGT1B (UniProt P53609)
inactive: [1] 0.025 | [2] 0.066 | [3] 0.051 | [4] -0.018 | [5] -0.004

PLBD2 (UniProt Q8NHP8)
inactive: [1] 0.011 | [2] 0.01 | [3] 0.01 | [4] -0.006 | [5] 0.007

PLEC (UniProt Q15149)
inactive: [1] 0.073 | [2] -0.066 | [3] 0.024 | [4] 0.101 | [5] 0

PFKM (UniProt F8VTQ3)
inactive: [1] 0.01

PICALM (UniProt Q13492)
inactive: [1] -0.001 | [2] 0.072 | [3] 0.033 | [4] -0.016 | [5] 0

PFKFB3 isoform 4 (UniProt Q16875)
inactive: [1] 0.02 | [2] -0.014 | [3] 0.005 | [4] -0.012 | [5] -0.07

PFDN5 (UniProt Q99471)
inactive: [1] -0.042 | [2] 0.089 | [3] -0.043 | [4] -0.093 | [5] -0.048

PFDN2 (UniProt Q9UHV9)
inactive: [1] 0.01 | [2] 0.032 | [3] 0.017 | [4] -0.018 | [5] 0.003

PHF3 (UniProt Q92576)
inactive: [1] 0.073 | [2] -0.055 | [3] -0.167 | [4] 0.176 | [5] 0.041

PFKL isoform 2 (UniProt P17858)
inactive: [1] 0.014 | [2] 0.026 | [3] 0.056 | [4] -0.017 | [5] 0.016

PGP (UniProt A6NDG6)
inactive: [1] -0.027 | [2] 0.021 | [3] 0.007 | [4] 0.001 | [5] -0.013

PFKFB2 (UniProt O60825)
inactive: [1] 0.044 | [2] 0.048 | [3] 0.028 | [4] -0.014 | [5] 0.007

PIGL (UniProt Q9Y2B2)
inactive: [1] 0 | [2] -0.005 | [3] 0.019 | [4] -0.006 | [5] 0.089

PHPT1 (UniProt Q9NRX4)
inactive: [1] 0.005 | [2] 0.011 | [3] 0.091 | [4] -0.05 | [5] -0.016

PIK3R4 (UniProt Q99570)
inactive: [1] -0.018 | [2] 0.006 | [3] 0.056 | [4] -0.016 | [5] -0.02

PHF23 (UniProt Q9BUL5)
inactive: [1] 0.019 | [2] -0.038 | [3] 0.053 | [4] -0.014 | [5] 0.052

PIGG (UniProt Q5H8A4)
inactive: [1] 0.12 | [2] 0.031 | [3] -0.091 | [4] 0.006 | [5] -0.003

PLEKHB2 isoform 2 (UniProt Q96CS7)
inactive: [1] 0.222

PITPNA (UniProt Q00169)
inactive: [1] 0.003 | [2] 0.045 | [3] -0.004 | [4] -0.038 | [5] 0.006

PGM2 (UniProt Q96G03)
inactive: [1] 0.003 | [2] 0.002 | [3] 0.005 | [4] -0.014 | [5] 0.019

PGS1 (UniProt Q32NB8)
inactive: [1] -0.254 | [2] 0.111 | [3] 0.075 | [4] -0.038 | [5] -0.048

PIR (UniProt O00625)
inactive: [1] 0.016 | [2] 0.064 | [3] 0.027 | [4] -0.029 | [5] 0.002

PGRMC2 isoform 2 (UniProt O15173)
inactive: [1] 0.044 | [2] 0.047 | [3] 0.005 | [4] -0.006 | [5] -0.01

PLA2G15 (UniProt Q8NCC3)
inactive: [1] 0.02 | [2] -0.01 | [3] -0.034 | [4] -0.001 | [5] 0

PJA2 (UniProt O43164)
inactive: [1] 0.005 | [2] -0.042 | [3] 0.021 | [4] 0.006 | [5] 0.024

PIAS1 isoform 2 (UniProt O75925)
inactive: [1] 0.021

Random excerpt: 2 entries already listed
PIR (UniProt O00625)
inactive: [1] 0.016 | [2] 0.064 | [3] 0.027 | [4] -0.029 | [5] 0.002

PGRMC2 isoform 2 (UniProt O15173)
inactive: [1] 0.044 | [2] 0.047 | [3] 0.005 | [4] -0.006 | [5] -0.01

Later entries:

PFKFB1 (UniProt P16118)
inactive: [1] 0

PKLR (UniProt P30613)
inactive: [1] 0.012 | [2] 0.028 | [3] -0.018 | [4] -0.01 | [5] 0.006

PGD (UniProt P52209)
inactive: [1] -0.028 | [2] 0.04 | [3] -0.006 | [4] -0.014 | [5] -0.029

PIGU (UniProt Q9H490)
inactive: [1] -0.087 | [2] -0.019 | [3] -0.026 | [4] -0.043 | [5] -0.024

PLCG2 (UniProt P16885)
inactive: [1] -0.034

PHLDB1 isoform 2 (UniProt Q86UU1)
inactive: [1] -0.006 | [2] 0.073 | [3] 0.081 | [4] 0.008 | [5] 0.002

PEX2 (UniProt P28328)
inactive: [1] 0.023 | [2] -0.006 | [3] -0.067 | [4] 0.058 | [5] -0.008

PLCXD1 (UniProt Q9NUJ7)
inactive: [1] -0.061

PFDN4 (UniProt Q9NQP4)
inactive: [1] -0.09 | [2] -0.053 | [3] -0.006 | [4] -0.05 | [5] -0.029

PLA2G4B isoform 6 (UniProt P0C869)
inactive: [1] -0.097 | [2] 0.233 | [3] -0.03 | [4] -0.054 | [5] -0.099

PITHD1 (UniProt Q9GZP4)
inactive: [1] 0.062 | [2] -0.013 | [3] 0.057 | [4] 0.036 | [5] 0.07

PIP4K2A (UniProt P48426)
inactive: [1] -0.091 | [2] 0.032 | [3] 0.049 | [4] 0.033 | [5] -0.024

PIGT (UniProt Q969N2)
active: [4] 0.276
inactive: [1] 0.022 | [2] 0.142 | [3] -0.013 | [5] -0.021

PFKFB4 (UniProt Q16877)
inactive: [1] -0.031 | [2] 0.056 | [3] 0.063 | [4] -0.035 | [5] -0.02

PKN2 (UniProt Q16513)
inactive: [1] -0.075 | [2] 0.103 | [3] 0.066 | [4] 0.029 | [5] 0.044

PIGQ (UniProt Q9BRB3)
inactive: [1] -0.057 | [2] -0.011 | [3] 0.262 | [4] -0.161 | [5] -0.014

PIN4 isoform 2 (UniProt Q9Y237)
inactive: [1] -0.016 | [2] 0.035 | [3] 0.008 | [4] -0.01 | [5] 0.015

PLD3 (UniProt Q8IV08)
inactive: [1] 0.022 | [2] 0.058 | [3] 0.033 | [4] 0.017 | [5] 0.009

PEX16 isoform 2 (UniProt Q9Y5Y5)
inactive: [1] -0.01 | [2] 0.095 | [3] 0.087 | [4] -0.031 | [5] -0.048

PIKFYVE (UniProt Q9Y2I7)
inactive: [1] -0.077 | [2] 0.106 | [3] 0.111 | [4] 0.068 | [5] -0.009

PIK3R1 (UniProt P27986)
inactive: [1] -0.059 | [2] 0.019 | [3] 0.138 | [4] 0.005 | [5] -0.027

PIGX isoform 2 (UniProt Q8TBF5)
inactive: [1] 0.022 | [2] 0.177 | [3] -0.019 | [4] 0.054 | [5] 0.163

PGAM4 (UniProt Q8N0Y7)
inactive: [1] 0.019 | [2] 0.006 | [3] -0.004 | [4] 0.019 | [5] 0.03

PKN1 isoform 2 (UniProt Q16512)
inactive: [1] -0.077 | [2] 0.079 | [3] 0.069 | [4] 0.015 | [5] 0

PGM3 isoform 4 (UniProt O95394)
inactive: [1] -0.082 | [2] 0.039 | [3] 0.066 | [4] 0.012 | [5] -0.088

PEX7 (UniProt O00628)
inactive: [2] 0.035 | [3] 0.136 | [4] 0.021 | [5] -0.03
active: [1] -0.371

PITRM1 isoform 2 (UniProt Q5JRX3)
inactive: [1] 0.064 | [2] -0.08 | [3] 0.048 | [4] -0.083 | [5] 0
